Some of the results follow. For some of these results: Construct or isoform of the protein are uncertain.

By UniProt entry, the sequences of proteins in these tests, tags left out. Where a name states a change or a piece, a line headed by the entry shows the natural chain unless it says otherwise.
UniProt Q9BRS8: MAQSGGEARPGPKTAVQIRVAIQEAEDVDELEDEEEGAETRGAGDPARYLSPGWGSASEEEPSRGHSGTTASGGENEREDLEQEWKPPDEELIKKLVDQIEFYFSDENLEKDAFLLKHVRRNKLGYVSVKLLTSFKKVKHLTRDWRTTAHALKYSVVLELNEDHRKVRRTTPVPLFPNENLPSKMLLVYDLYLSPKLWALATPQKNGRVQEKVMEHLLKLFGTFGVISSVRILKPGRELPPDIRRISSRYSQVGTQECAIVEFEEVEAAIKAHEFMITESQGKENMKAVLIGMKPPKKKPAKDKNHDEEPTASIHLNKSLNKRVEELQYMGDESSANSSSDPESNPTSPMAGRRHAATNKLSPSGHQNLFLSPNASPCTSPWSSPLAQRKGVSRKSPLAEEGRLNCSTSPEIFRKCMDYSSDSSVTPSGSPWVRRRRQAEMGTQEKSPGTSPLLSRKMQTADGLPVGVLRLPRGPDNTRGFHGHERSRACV

Experiment in all cases: protein microarray (ProtoArray v5.0), streptavidin-Alexa Fluor 647
Conditions in all cases: 3'-biotin; 20 mM Tris (pH 7.5), 5 mM MgCl2, 100 mM KCl, 0.1% Tween-20, A/T-rich and random oligonucleotide blockers; temperature not stated; high values mean tight binding

Assay [1] deals with Kinesin light chain 1 (human).
Assay [2] has as its system Kinesin light chain 3 (human).
The subject of assay [3] is Kinesin-like protein KIF26B (human).
The test system of assay [4] is L-asparaginase (human).
Assay [5] has as its system LACRT (human).
Assay [6] concerns LACTB2 (human).
Assay [7] has as its system LAIR2 (human).
In assay [8] the test system is LANCL2 (human).
Assay [9] has as its target LARP1 (UniProt Q6PKG0).
The target of assay [10] is LARP6 (UniProt Q9BRS8).

Consider “GGGAGGCTGAGGCAGG [G4-1 biotinylated (PQS2)]”, for which the binding signal in assay [1] was -0.337 z-score; in assay [2], -0.345 z-score; in assay [3], -0.314 z-score; in assay [4], -0.335 z-score; in assay [5], -0.304 z-score; in [6], -0.353 z-score. Further, the binding signal was -0.327 z-score in assay [7], -0.316 z-score in assay [8], 4.49 z-score in assay [9] and 3.99 z-score in [10].

The record behind these values is paper PMC5996148.
